Some of the results follow.
Assays:
Test in all cases: log2 fold change, soluble protein after heating vs DMSO (PISA); higher = thermal stabilisation; K562 cells, 10 uM, 30 min; active = over 0.2 and 3.5 SD of the protein, either way, in both replicates (recomputed)
[1] = compound: CN1CCN(CCOc2cc(OC3CCOCC3)c3c(Nc4c(Cl)ccc5c4OCO5)ncnc3c2)CC1 [saracatinib]
In short: (§1)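 K562 cells at 2×10^6 cells/mL were treated for 30 min with 10 μM compound, and aliquots were heated for 3 min over 48°C-58°C before pooling. Extraction used PBS with 0.5% NP-40 at 4°C, and soluble protein was the supernatant after 21,000xg for 90 min, measured by TMTpro 16plex LC-MS/MS with channel sums equalised. Thermal stability values, relative to control samples and from duplicates, are log2 fold changes.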

The chains behind the UniProt entries cited, without tags or fusion partners. Where a name states a change or a piece, a line headed by the entry shows the natural chain unless it says otherwise.
UniProt Q5TC82: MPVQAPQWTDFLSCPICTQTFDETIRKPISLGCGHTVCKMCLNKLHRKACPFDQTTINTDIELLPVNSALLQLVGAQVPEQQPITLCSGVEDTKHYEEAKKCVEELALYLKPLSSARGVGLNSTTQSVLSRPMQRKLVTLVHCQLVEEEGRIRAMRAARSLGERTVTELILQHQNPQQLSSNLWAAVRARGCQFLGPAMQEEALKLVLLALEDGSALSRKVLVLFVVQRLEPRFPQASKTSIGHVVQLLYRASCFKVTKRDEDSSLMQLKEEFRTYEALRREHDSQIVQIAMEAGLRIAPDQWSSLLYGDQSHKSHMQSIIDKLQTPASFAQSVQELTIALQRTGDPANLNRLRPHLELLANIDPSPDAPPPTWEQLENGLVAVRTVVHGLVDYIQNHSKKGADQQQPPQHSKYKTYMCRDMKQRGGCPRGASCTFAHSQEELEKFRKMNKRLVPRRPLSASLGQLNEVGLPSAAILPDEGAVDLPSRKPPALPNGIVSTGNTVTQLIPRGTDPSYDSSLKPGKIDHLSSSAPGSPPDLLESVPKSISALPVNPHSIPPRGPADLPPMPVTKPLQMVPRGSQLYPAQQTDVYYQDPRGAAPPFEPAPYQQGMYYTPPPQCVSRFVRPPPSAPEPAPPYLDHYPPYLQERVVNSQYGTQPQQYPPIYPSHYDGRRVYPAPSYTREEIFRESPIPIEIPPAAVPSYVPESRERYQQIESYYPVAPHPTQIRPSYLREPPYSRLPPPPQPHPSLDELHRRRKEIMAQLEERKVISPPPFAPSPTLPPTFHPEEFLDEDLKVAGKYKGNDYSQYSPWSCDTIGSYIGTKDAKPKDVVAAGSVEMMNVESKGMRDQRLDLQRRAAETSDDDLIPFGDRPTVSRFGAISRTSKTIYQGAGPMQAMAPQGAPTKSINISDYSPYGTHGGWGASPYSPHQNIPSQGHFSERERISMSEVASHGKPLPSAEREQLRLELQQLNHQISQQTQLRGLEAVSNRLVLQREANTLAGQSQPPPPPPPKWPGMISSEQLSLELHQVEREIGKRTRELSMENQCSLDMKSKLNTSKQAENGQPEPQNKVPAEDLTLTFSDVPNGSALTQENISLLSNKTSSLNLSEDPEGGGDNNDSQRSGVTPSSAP
UniProt Q9NVW2: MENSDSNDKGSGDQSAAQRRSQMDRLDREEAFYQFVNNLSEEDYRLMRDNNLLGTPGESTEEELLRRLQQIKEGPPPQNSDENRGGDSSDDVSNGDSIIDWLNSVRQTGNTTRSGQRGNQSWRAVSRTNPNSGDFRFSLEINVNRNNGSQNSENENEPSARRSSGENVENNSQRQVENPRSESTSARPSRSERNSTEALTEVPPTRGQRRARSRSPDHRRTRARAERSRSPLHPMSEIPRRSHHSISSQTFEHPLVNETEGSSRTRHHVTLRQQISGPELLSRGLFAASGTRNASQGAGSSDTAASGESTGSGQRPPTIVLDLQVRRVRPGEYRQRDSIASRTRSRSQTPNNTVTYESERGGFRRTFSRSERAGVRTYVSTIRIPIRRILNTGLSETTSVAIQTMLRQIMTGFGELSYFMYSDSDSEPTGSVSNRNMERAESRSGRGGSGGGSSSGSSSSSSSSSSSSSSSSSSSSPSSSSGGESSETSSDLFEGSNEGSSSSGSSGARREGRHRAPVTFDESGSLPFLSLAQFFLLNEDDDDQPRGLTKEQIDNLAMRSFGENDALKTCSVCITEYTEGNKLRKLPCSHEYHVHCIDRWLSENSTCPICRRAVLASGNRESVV
UniProt Q9NTX7: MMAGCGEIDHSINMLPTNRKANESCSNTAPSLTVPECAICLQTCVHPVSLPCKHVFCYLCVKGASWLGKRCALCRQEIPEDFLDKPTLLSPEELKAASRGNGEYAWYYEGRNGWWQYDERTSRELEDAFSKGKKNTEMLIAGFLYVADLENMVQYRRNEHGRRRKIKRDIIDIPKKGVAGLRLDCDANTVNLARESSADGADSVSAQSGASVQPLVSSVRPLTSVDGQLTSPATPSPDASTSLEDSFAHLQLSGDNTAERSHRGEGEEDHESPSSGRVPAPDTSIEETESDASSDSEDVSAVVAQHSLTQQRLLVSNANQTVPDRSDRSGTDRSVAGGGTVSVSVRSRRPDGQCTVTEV
UniProt Q8IUF8: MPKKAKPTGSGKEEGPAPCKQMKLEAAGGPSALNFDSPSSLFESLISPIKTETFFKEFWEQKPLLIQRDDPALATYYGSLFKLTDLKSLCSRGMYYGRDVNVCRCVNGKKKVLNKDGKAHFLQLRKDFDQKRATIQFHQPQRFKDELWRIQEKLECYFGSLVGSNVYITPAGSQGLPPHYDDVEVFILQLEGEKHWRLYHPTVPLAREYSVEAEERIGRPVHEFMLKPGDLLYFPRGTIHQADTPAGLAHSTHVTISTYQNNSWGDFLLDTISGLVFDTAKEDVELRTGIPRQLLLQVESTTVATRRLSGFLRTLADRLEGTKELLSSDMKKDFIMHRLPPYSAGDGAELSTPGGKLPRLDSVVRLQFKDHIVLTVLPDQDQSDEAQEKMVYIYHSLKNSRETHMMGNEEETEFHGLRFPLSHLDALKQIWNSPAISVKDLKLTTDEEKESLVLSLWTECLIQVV
UniProt Q5VTR2, whole entry, looked up: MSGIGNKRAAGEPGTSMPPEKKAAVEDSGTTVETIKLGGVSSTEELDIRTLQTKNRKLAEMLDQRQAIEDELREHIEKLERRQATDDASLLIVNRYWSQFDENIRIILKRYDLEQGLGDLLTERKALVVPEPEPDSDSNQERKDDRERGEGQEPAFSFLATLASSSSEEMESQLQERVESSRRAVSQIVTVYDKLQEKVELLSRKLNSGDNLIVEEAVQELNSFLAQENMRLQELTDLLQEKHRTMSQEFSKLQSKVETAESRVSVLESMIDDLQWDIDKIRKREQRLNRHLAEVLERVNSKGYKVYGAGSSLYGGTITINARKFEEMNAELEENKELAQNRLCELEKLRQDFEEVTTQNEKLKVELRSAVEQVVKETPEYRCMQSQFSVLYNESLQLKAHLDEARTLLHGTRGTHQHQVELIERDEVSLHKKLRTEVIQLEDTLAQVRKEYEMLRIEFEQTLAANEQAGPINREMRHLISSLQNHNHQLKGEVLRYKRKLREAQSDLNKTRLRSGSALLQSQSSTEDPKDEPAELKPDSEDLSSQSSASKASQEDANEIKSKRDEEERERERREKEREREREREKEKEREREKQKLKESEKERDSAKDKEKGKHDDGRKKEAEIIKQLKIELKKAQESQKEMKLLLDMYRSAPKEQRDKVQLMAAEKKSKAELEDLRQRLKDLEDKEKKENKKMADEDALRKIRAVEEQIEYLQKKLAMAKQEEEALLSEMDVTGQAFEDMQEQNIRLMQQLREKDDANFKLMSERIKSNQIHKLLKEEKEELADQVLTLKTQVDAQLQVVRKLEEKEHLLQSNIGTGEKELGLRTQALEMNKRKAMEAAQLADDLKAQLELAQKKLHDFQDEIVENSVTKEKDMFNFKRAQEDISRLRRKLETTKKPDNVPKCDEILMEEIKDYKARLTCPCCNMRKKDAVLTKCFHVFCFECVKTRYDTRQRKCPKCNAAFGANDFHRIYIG
UniProt P62745, whole entry, looked up: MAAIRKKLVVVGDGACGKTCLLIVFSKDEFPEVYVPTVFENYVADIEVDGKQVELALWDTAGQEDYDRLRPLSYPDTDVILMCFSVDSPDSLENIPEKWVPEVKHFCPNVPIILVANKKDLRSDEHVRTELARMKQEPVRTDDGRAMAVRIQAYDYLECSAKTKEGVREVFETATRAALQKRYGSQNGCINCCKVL
UniProt Q9BTD8: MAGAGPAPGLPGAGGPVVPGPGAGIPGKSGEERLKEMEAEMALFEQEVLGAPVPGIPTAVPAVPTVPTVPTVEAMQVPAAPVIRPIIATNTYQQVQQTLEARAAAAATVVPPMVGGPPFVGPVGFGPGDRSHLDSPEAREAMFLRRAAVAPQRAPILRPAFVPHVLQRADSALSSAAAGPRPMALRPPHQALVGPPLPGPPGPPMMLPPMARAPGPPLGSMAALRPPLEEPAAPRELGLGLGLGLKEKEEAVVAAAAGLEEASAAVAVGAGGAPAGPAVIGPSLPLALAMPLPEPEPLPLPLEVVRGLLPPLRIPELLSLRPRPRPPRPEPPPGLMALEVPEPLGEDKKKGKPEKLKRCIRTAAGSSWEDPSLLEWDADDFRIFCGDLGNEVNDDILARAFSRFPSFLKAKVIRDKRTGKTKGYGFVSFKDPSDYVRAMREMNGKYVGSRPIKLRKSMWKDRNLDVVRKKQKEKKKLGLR
UniProt P38159: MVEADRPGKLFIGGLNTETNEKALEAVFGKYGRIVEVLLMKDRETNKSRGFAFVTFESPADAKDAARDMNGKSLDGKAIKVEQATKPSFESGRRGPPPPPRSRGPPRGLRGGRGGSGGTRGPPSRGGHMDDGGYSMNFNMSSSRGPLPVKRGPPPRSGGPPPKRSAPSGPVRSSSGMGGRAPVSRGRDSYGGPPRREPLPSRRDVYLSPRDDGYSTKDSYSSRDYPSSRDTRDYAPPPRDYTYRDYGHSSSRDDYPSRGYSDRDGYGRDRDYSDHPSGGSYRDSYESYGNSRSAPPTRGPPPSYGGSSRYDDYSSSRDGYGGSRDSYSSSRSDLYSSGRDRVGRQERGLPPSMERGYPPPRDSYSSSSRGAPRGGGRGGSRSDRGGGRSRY
UniProt Q5EBL4: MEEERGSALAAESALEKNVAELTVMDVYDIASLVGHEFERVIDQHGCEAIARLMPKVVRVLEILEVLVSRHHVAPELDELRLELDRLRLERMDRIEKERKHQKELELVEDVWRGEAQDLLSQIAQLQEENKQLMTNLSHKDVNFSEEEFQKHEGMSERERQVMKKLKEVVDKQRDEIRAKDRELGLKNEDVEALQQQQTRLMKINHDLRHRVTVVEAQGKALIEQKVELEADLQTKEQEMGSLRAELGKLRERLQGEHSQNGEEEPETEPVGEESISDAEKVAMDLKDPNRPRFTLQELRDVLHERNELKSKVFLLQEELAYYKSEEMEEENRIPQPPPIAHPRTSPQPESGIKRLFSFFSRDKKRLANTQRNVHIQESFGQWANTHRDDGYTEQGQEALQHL
UniProt Q9P0P0: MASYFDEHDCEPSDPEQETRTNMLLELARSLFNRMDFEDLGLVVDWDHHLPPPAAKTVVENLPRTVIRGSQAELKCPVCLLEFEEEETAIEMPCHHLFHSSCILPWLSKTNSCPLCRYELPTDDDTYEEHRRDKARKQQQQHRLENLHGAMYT
UniProt Q5TBB1: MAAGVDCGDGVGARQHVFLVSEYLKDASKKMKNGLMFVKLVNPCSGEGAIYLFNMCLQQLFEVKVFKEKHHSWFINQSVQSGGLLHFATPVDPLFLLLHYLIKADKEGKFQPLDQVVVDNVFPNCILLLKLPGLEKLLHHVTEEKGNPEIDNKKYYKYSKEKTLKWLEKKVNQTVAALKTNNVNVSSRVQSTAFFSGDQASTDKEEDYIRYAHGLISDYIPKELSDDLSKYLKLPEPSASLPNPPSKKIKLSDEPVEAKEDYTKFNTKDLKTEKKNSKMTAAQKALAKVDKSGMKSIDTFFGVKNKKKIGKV
UniProt Q8NC42: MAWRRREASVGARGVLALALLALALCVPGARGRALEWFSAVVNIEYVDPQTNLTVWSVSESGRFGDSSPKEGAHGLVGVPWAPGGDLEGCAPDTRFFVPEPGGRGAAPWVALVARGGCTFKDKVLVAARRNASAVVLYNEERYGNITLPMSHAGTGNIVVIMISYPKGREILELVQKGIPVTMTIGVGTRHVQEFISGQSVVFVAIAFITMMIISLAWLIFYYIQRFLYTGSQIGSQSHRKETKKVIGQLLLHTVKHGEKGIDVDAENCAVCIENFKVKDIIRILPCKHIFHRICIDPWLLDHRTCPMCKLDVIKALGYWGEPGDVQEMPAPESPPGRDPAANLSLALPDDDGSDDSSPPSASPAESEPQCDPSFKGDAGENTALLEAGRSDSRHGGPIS
UniProt P40937, whole entry, looked up: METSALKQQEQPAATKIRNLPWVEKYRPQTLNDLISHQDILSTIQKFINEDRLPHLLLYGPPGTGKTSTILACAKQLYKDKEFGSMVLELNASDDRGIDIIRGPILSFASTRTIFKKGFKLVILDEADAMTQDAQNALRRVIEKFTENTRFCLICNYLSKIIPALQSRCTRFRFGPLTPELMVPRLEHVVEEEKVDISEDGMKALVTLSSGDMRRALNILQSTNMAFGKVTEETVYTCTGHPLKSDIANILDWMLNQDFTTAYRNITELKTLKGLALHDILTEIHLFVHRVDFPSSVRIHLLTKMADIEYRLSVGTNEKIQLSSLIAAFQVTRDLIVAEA
UniProt P82980: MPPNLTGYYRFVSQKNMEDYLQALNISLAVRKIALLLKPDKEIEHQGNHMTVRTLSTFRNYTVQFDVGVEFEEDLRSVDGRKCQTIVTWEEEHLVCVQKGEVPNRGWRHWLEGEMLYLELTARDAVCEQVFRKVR

[2] = compound: CN1CCN(c2nc(C3=C(c4c[nH]c5ccccc45)C(=O)NC3=O)c3ccccc3n2)CC1 [sotrastaurin]
In short: as §1

[3] = compound: CN1CC[C@H](c2c(O)cc(O)c3c(=O)cc(-c4ccccc4Cl)oc23)[C@H](O)C1 [alvocidib]
In short: as §1

[4] = compound: CN1CCc2c(c3ccccc3n2Cc2ccc(C(=O)NO)cc2)C1 [Tubastatin A]
In short: as §1

[5] = compound: CNC(=O)C1=CC=CC=C1NC2=NC(=NC=C2Cl)NC3=C(C=C(C=C3)N4CCOCC4)OC
In short: as §1

[6] = compound: CNC(=O)c1ccc(Nc2ncc(C(F)(F)F)c(NCc3nccnc3N(C)S(C)(=O)=O)n2)cc1 [defactinib]
In short: as §1

[7] = compound: CNCc1ccc(-c2[nH]c3cc(F)cc4c3c2CCNC4=O)cc1 [rucaparib]
In short: as §1

[8] = compound: CNc1nc(-c2ccc3c(N)n[nH]c3c2)cc(N2C[C@@H](C(=O)NC3CCCCC3)CC[C@H]2C)n1
In short: as §1

[9] = compound: COC(=O)N[C@@H](C)CNc1nccc(-c2cn(C(C)C)nc2-c2cc(Cl)cc(NS(C)(=O)=O)c2F)n1 [encorafenib]
In short: as §1

[10] = compound: COC(=O)[C@H](CCSC)NC(=O)C1=C(C=C(C=C1)NC[C@H](CS)N)C2=CC=CC=C2
In short: as §1

[11] = compound: COC1=CC=C(C=C1)CN2C=CC3=C2C=C(C=C3)C(=O)NO
In short: as §1

[12] = compound: CON(C)C(=O)N1N=C(c2cc(F)ccc2F)S[C@@]1(CCCN)c1ccccc1 [filanesib]
In short: as §1

[13] = compound: CO[C@H]1C[C@@H]2CC[C@@H](C)[C@@](O)(O2)C(=O)C(=O)N2CCCC[C@H]2C(=O)O[C@H]([C@H](C)C[C@@H]2CC[C@H](n3cnnn3)[C@H](OC)C2)CC(=O)[C@H](C)/C=C(\C)[C@@H](O)[C@@H](OC)C(=O)[C@H](C)C[C@H](C)/C=C/C=C/C=C/1C [zotarolimus]
In short: as §1

[14] = compound: COc1cc(C(=O)O)ccc1NC(=O)[C@@H]1N[C@@H](CC(C)(C)C)[C@](C#N)(c2ccc(Cl)cc2F)[C@H]1c1cccc(Cl)c1F [idasanutlin]
In short: as §1

[15] = compound: COc1cc(Nc2ncc3c(n2)-c2ccc(Cl)cc2C(c2c(F)cccc2OC)=NC3)ccc1C(=O)O [alisertib]
In short: as §1

[16] = compound: COc1cc2nc(-c3cc(F)ccc3O)nc(N[C@@H]3CNC[C@H]3C(C)(C)O)c2cc1OC
In short: as §1

[17] = compound: COc1cccc2cc(-c3nc([C@H]4CC[C@H](C(=O)O)CC4)n4ncnc(N)c34)[nH]c12
In short: as §1

[18] = compound: CS(=O)(=O)CCNCc1ccc(-c2ccc3ncnc(Nc4ccc(OCc5cccc(F)c5)c(Cl)c4)c3c2)o1 [lapatinib]
In short: as §1

[19] = compound: CS(=O)(=O)N1CCN(Cc2cc3nc(-c4cccc5[nH]ncc45)nc(N4CCOCC4)c3s2)CC1 [pictilisib]
In short: as §1

[20] = compound: COc1cc2ncnc(Nc3ccc(F)c(Cl)c3)c2cc1OCCCN1CCOCC1 [gefitinib]
In short: as §1

Measured: log2 fold change

RC3H1 (UniProt Q5TC82)
inactive: [1] 0.026 | [2] -0.052 | [3] 0.013 | [4] 0.078 | [5] 0.018 | [6] 0.097 | [7] 0.043 | [8] 0.007 | [9] -0.098 | [10] -0.035 | [11] -0.007 | [12] 0 | [13] -0.074 | [14] -0.261 | [15] 0.114 | [16] 0.116 | [17] -0.326 | [18] -0.027 | [19] -0.287

RLIM (UniProt Q9NVW2)
inactive: [1] -0.12 | [2] 0.001 | [3] 0.023 | [4] 0.337 | [6] 0.041 | [7] -0.174 | [8] 0.018 | [9] -0.102 | [10] 0.122 | [12] 0.153 | [13] -0.062 | [14] -0.132 | [16] 0.299 | [18] -0.161 | [19] 0.342

RNF123 isoform 2 (UniProt Q5XPI4)
inactive: [1] -0.001 | [2] -0.017 | [3] -0.13 | [4] 0.002 | [5] 0.001 | [6] -0.139 | [7] 0.006 | [8] -0.087 | [9] 0.018 | [10] 0 | [11] 0.205 | [12] 0.032 | [13] 0.02 | [14] -0.045 | [15] 0.036 | [16] 0.04 | [20] -0.022 | [17] -0.014 | [18] 0.027 | [19] -0.039

RNF146 (UniProt Q9NTX7)
inactive: [1] 0.011 | [2] 0.026 | [3] 0.064 | [4] -0.035 | [5] 0.043 | [6] -0.019 | [7] -0.017 | [8] -0.06 | [9] -0.185 | [10] -0.015 | [11] -0.132 | [12] -0.01 | [13] -0.106 | [14] 0.062 | [16] 0.054 | [18] -0.05

RIOX2 (UniProt Q8IUF8)
inactive: [1] 0.17 | [2] -0.057 | [3] -0.012 | [4] -0.124 | [5] 0.086 | [6] 0.054 | [8] 0 | [10] 0.148 | [11] -0.344 | [12] 0.024 | [13] 0.072 | [14] 0.021 | [15] -0.064 | [16] 0.053 | [20] -0.056 | [17] -0.101 | [18] -0.045 | [19] 0.043

RNF20 (UniProt Q5VTR2)
inactive: [1] 0.018 | [2] -0.193 | [3] -0.146 | [4] 0.111 | [5] 0.087 | [7] -0.015 | [8] -0.137 | [9] -0.125 | [11] 0.008 | [12] 0.124 | [13] -0.052 | [14] 0 | [15] 0.25 | [16] -0.005 | [20] -0.062 | [17] 0.147 | [18] 0.068 | [19] 0.048

RHOB (UniProt P62745)
inactive: [1] 0.118 | [2] -0.038 | [3] -0.008 | [4] -0.041 | [5] 0.013 | [6] 0.265 | [7] 0.041 | [8] -0.236 | [9] -0.01 | [10] 0.184 | [11] 0.35 | [12] -0.024 | [13] 0.014 | [14] 0.135 | [15] 0.042 | [16] -0.088 | [20] -0.026 | [17] -0.051 | [18] -0.005 | [19] 0.058

RBM42 (UniProt Q9BTD8)
inactive: [1] -0.111 | [2] 0.016 | [3] 0.137 | [4] 0.046 | [5] 0.068 | [6] 0.014 | [7] 0.185 | [8] -0.041 | [9] -0.002 | [10] -0.045 | [11] -0.055 | [12] 0.146 | [13] -0.03 | [14] 0.05 | [15] -0.038 | [16] -0.062 | [20] -0.032 | [17] -0.082 | [18] 0.066 | [19] -0.114

RBPJ (UniProt Q06330)
inactive: [1] 0.02 | [2] -0.008 | [3] 0.028 | [4] -0.006 | [5] -0.022 | [6] 0.046 | [7] 0 | [8] -0.053 | [9] -0.032 | [10] 0.025 | [11] 0.026 | [12] -0.014 | [13] -0.03 | [14] -0.006 | [15] -0.115 | [16] 0.001 | [20] 0.003 | [17] 0.046 | [18] -0.009 | [19] 0.03

RBMX (UniProt P38159)
inactive: [1] -0.008 | [2] -0.021 | [3] 0.206 | [4] 0.073 | [5] 0.011 | [6] 0.288 | [7] 0.265 | [8] 0.065 | [9] 0.147 | [10] 0.003 | [11] -0.153 | [12] 0.462 | [13] 0.019 | [14] 0.33 | [15] -0.133 | [16] -0.062 | [20] -0.058 | [17] -0.12 | [18] 0.096 | [19] -0.089

RILPL1 (UniProt Q5EBL4)
inactive: [1] -0.527 | [2] -0.131 | [3] 0.036 | [4] -0.032 | [5] -0.052 | [6] 0.056 | [7] -0.191 | [8] 0.203 | [9] -0.034 | [10] -0.058 | [11] -0.046 | [12] -0.005 | [13] -0.085 | [15] -0.003 | [17] -0.037

RNF181 (UniProt Q9P0P0)
inactive: [1] 0.041 | [2] 0.023 | [3] 0.043 | [4] 0.069 | [5] -0.047 | [6] -0.004 | [7] -0.047 | [8] -0.075 | [9] -0.027 | [10] 0.04 | [11] -0.03 | [12] 0.032 | [13] -0.021 | [14] 0.057 | [15] -0.07 | [16] -0.009 | [20] 0.011 | [17] 0.032 | [18] 0.003 | [19] -0.003

RNASEH2B (UniProt Q5TBB1)
inactive: [1] -0.06 | [2] -0.238 | [3] -0.222 | [4] 0.189 | [5] 0.073 | [6] -0.14 | [7] -0.041 | [8] 0.138 | [9] 0.079 | [10] -0.006 | [11] 0.17 | [12] -0.328 | [13] 0.07 | [14] -0.088 | [15] 0.065 | [16] 0.112 | [20] 0.05 | [17] 0.069 | [18] -0.095 | [19] 0.13

Copied from the results shown (two entries):
RNF181 (UniProt Q9P0P0)
inactive: [1] 0.041 | [2] 0.023 | [3] 0.043 | [4] 0.069 | [5] -0.047 | [6] -0.004 | [7] -0.047 | [8] -0.075 | [9] -0.027 | [10] 0.04 | [11] -0.03 | [12] 0.032 | [13] -0.021 | [14] 0.057 | [15] -0.07 | [16] -0.009 | [20] 0.011 | [17] 0.032 | [18] 0.003 | [19] -0.003

RNASEH2B (UniProt Q5TBB1)
inactive: [1] -0.06 | [2] -0.238 | [3] -0.222 | [4] 0.189 | [5] 0.073 | [6] -0.14 | [7] -0.041 | [8] 0.138 | [9] 0.079 | [10] -0.006 | [11] 0.17 | [12] -0.328 | [13] 0.07 | [14] -0.088 | [15] 0.065 | [16] 0.112 | [20] 0.05 | [17] 0.069 | [18] -0.095 | [19] 0.13

The list goes on:

RHEB (UniProt Q15382)
inactive: [1] 0.047 | [2] 0.04 | [4] -0.054 | [5] -0.032 | [6] 0.002 | [7] -0.084 | [8] -0.011 | [9] 0.025 | [10] 0 | [11] -0.007 | [12] -0.08 | [13] 0.016 | [14] -0.049 | [15] -0.03 | [16] 0.032 | [20] 0.015 | [17] 0.057 | [18] 0.005 | [19] 0.029

RNF149 (UniProt Q8NC42)
inactive: [1] 0 | [2] 0.06 | [3] -0.057 | [4] 0.135 | [5] -0.073 | [6] 0.04 | [7] -0.019 | [8] 0.04 | [9] 0.133 | [10] 0.003 | [11] 0.026 | [12] -0.039 | [13] -0.052 | [14] 0.058 | [15] 0.013 | [16] -0.042 | [20] -0.043 | [17] 0.023 | [18] -0.02 | [19] 0

RFC5 (UniProt P40937)
inactive: [1] 0.03 | [2] 0.003 | [3] -0.028 | [4] 0.002 | [5] -0.029 | [6] -0.028 | [7] 0.005 | [8] -0.007 | [9] 0.007 | [10] -0.008 | [11] -0.027 | [12] -0.061 | [13] 0.026 | [14] -0.084 | [15] -0.026 | [16] 0.05 | [20] -0.027 | [17] 0.029 | [18] 0 | [19] 0.003

RBP5 (UniProt P82980)
inactive: [1] -0.011 | [2] 0.205 | [3] 0 | [4] -0.116 | [5] 0.033 | [7] -0.259 | [8] 0.062 | [9] 0.19 | [11] 0.032 | [12] -0.152 | [13] 0.067 | [14] -0.026 | [15] -0.165 | [16] -0.109 | [20] 0.04 | [17] -0.01 | [18] -0.023 | [19] -0.187

From the supplement of paper PMC10849652
